# From patent publication US10174001B2, “Crystals of 5-cyclopropyl-2-((1-(3-fluorobenzyl)-1H-indol-5-yl)amino)nicotinic acid” (FUJIFILM Toyama Chemical Co., Ltd., priority 2015, dated 2019)
# Some results were stated once for a whole list of compounds, not compound by compound.
# Assay: Test Example 3: Hygroscopicity (rate of weight change and crystal form)
# Format: physicochemical
# Settings: 25° C., relative humidity of 75 or 97%, up to 12 weeks
# Method: The α-form crystal and the β-form crystal were preserved under the conditions of 25° C. and a relative humidity of 75 or 97%.
# Sampling was carried out over time and the weights of crystals were measured to determine rates of weight changes. Additionally, crystal forms were measured by the infrared absorption spectrum.
# Rate of weight change (%)=((B−A)/A)×100
# A: Crystal weight before the test started
# B: Crystal weight after the test started
smiles,measurement,value
"O=C(O)c1cc(C2CC2)cnc1Nc1ccc2c(ccn2Cc2cccc(F)c2)c1 [α-Form crystal, 5-cyclopropyl-2-((1-(3-fluorobenzyl)-1H-indol-5-yl)amino)nicotinic acid]",Rates of weight changes,less than 0.5%
"O=C(O)c1cc(C2CC2)cnc1Nc1ccc2c(ccn2Cc2cccc(F)c2)c1 [β-Form crystal, 5-cyclopropyl-2-((1-(3-fluorobenzyl)-1H-indol-5-yl)amino)nicotinic acid]",Rates of weight changes,less than 0.5%
